The record followed here is publication PMC4627809.

The chains behind the UniProt entries cited, without tags or fusion partners. Where a name states a change or a piece, a line headed by the entry shows the natural chain unless it says otherwise. Residues count along the entry.
UniProt Q00613: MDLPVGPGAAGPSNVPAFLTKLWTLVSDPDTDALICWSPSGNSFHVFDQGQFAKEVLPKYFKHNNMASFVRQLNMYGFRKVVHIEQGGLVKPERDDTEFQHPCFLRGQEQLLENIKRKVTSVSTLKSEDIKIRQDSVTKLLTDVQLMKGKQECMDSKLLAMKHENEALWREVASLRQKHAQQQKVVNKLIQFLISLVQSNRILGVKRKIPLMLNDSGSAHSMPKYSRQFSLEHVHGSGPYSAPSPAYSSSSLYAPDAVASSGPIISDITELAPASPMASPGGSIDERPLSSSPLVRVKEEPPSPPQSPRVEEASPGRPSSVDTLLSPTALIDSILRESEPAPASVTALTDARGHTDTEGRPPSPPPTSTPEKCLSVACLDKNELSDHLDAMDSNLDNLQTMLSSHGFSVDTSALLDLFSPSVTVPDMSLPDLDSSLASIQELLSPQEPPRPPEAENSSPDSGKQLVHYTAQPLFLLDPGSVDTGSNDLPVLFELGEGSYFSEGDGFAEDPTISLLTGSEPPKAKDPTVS
UniProt P08581: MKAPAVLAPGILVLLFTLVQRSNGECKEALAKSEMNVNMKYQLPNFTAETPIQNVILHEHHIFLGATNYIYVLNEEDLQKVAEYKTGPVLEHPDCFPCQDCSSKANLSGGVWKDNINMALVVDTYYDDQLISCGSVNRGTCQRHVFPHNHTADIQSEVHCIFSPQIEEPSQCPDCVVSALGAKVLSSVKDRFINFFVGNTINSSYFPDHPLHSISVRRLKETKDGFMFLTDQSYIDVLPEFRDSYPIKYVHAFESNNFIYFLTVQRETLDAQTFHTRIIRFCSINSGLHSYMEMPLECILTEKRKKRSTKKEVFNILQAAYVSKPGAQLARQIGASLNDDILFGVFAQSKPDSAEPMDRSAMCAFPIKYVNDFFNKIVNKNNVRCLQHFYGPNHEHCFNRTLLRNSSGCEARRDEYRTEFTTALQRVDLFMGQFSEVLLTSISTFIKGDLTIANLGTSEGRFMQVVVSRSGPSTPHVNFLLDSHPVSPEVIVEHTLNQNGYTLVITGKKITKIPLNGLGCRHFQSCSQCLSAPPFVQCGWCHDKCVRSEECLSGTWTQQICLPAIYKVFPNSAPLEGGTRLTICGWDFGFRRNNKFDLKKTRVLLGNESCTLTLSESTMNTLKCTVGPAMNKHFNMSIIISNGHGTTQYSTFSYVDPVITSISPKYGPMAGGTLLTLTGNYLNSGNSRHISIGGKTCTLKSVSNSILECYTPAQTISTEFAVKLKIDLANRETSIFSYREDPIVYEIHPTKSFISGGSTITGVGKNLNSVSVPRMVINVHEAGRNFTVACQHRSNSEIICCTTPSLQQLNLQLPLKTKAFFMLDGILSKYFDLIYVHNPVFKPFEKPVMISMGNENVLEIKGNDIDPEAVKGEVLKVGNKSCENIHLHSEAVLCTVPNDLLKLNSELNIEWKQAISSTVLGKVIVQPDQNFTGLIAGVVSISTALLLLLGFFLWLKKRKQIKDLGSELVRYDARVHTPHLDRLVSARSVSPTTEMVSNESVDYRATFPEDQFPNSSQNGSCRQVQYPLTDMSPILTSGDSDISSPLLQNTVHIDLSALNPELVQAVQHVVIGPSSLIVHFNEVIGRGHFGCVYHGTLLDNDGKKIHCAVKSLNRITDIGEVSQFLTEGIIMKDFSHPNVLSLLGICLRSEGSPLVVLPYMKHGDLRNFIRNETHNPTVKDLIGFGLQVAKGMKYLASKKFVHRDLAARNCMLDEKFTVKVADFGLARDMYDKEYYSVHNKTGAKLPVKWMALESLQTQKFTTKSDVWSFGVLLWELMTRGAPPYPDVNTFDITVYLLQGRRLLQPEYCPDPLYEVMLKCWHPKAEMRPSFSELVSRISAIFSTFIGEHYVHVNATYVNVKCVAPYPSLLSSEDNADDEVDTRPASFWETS
NL-MET: residues 933-1390 of P08581

These are yes or no findings as the source states them, for the method shown. For some of these results: Binding seen in cells or lysates may run through a third protein. Some entries that bind do so weakly or less than the wild type.

In assay [1] the target is FLAG-HSP90β wild type (human) (UniProt P08238). Put plainly: co-IP; HEK293 co-transfected with FLAG-HSP90 construct and client for 18 h; lysis in TGNET (50 mM Tris HCl pH 7.5, 5% glycerol, 100 mM NaCl, 2 mM EDTA, 0.5% Triton X-100); 700 μg lysate on anti-FLAG beads 2 h at 4°C; western blot for the client.
In assay [2] the target is FLAG-HSP90β R392A (human) (UniProt P08238). The assay is described as above.
The target of assay [3] is FLAG-HSP90β E42A (human) (UniProt P08238). The assay is described as above.
Assay [4] deals with FLAG-HSP90α wild type (human) (UniProt P07900). The assay is described as above.
The target of assay [5] is FLAG-HSP90β D88A (human) (UniProt P08238). The description is as above.
Assay [6] has as its target FLAG-HSP90α IL218/20AA (human) (UniProt P07900). The description is as above.
The target in assay [7] is FLAG-HSP90β IL213/5AA (human) (UniProt P08238). The assay is described as above.
In assay [8] the target is FLAG-HSP90α D93A (human) (UniProt P07900). The assay is described as above.
For assay [9], the target named is FLAG-HSP90α R400A (human) (UniProt P07900). The description is as above.
The target of assay [10] is FLAG-HSP90α E47A (human) (UniProt P07900). The assay is described as above.
Assay [11] addresses FLAG-HSP90β wild type (human) (UniProt P08238). Put plainly: LUMIER; HEK293 in 96-well plates co-transfected with NanoLuc-client and 3XFLAG-HSP90α or β; TGNET lysate on anti-FLAG antibody-coated plate 2 h at 4°C; NanoLuc read-out divided by anti-FLAG-HRP read-out = relative interaction strength.
Assay [12] has as its target FLAG-HSP90α wild type (human) (UniProt P07900). Described as above.

In the case of ERBB2 (from UniProt P04626 23-1255), the binding entry in assay [1], in [2] and in assay [3] was “binds” in each case.

Take HA-HIF1α (from UniProt Q16665 1-826): the binding result in assay [4] is “binds weakly”; in [1] it was “binds weakly”; in [5], “binds”; in [6], “binds”; in assay [7] it was “no binding”; in [2] it was “binds weakly”. Moreover, the binding entry is listed as “binds” in [8], “binds weakly” in assay [9], “binds” in assay [10] and “binds” in [3].

For the substance HA-HSF1 (from UniProt Q00613 1-529), the binding entry is “binds weakly” in assay [1]; “binds weakly” in assay [5]; “binds weakly” in assay [7]; “binds weakly” in assay [2]; “binds” in assay [3].

Regarding HA-KEAP1 (from UniProt Q14145 1-624), the binding result in assay [4], in assay [1], in [5], in assay [6], in [7] and in assay [2] was “binds” in each case. The binding entry in [8], in [9], in assay [10] and in [3] was “binds” each time.

As to MET (from UniProt P08581 25-1390), the binding result in assay [4], in assay [1], in assay [5], in assay [6], in assay [7] and in assay [2] was “binds” in each case. Also, the binding result in assay [8], in assay [9], in assay [10] and in assay [3] was “binds” throughout.

“NL-ERBB2 (from UniProt P04626 636-1255) (domain or fragment)”: the binding result in [11] is “binds”.

Take NL-HIF1α (from UniProt Q16665 1-826): in assay [11], the binding entry is listed as “binds”.

With NL-KEAP1 (from UniProt Q14145 1-624), the binding entry in assay [11] is on record as “binds”.

For the substance “NL-MET (from UniProt P08581-2 951-1408) (domain or fragment)”, the binding entry in [12] and in [11] was “binds” each time.
